Amino acid sequences for entries named in this document (tags omitted). Residues count along the entry.
UniProt Q92793, 1085-1192 limits assumed: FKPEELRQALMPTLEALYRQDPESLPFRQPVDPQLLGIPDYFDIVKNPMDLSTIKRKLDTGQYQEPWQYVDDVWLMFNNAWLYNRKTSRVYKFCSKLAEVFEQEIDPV

According to patent publication EP4831169A1, “NOVEL COMPOUND USED AS CBP/P300 INHIBITOR, AND PHARMACEUTICAL COMPOSITION FOR PREVENTING OR TREATING CANCER, INFLAMMATORY DISORDERS, OR AUTOIMMUNE DISEASES COMPRISING SAME AS ACTIVE INGREDIENT” (dated 2026):

Columns and labels:
[1] = target: BRD4 (BD1) protein (Homo sapiens, UniProt O60885); experiment: BRD4 bromodomain TR-FRET inhibitory activity assay; settings: read-out: BRD4 (BD1) IC50, Table 4
Procedure: BRD inhibitory activity was measured using a time resolved fluorescence resonance energy transfer (TR-FRET) experiment to verify the activity of BRD4 bromodomain.
(§1) The assay was performed in a final volume of 14 µL, optimized based on a CREBBP time resolved fluorescence resonance energy transfer (TR-FRET) assay kit (BPS Bioscience, cat. 32613) to maximize an assay window, and performed in a final volume of 14 µL, while maximizing the assay window. A TR-FRET fluorescence acceptor and a Tb donor were diluted in an assay buffer containing 2-[4-(2-hydroxyethyl)piperazin-1-yl]ethanesulfonic acid (HEPES) (hereafter, referred to as an assay buffer, BPS Bioscience, cat. 33012), and 3 µL of each solution was transferred to all wells of a white 384-low-volume well plate (Corning, cat. 4513). 2 µL of 4X Ac-H4 peptide (final concentration 15 nM) was transferred to high control wells and test wells. Each compound was prepared at 10 concentration points by serially diluting 3-fold from the highest concentration in a dimethyl sulfoxide (DMSO) solvent. […] The TR-FRET signal was measured using an EnVision Multilabel plate reader (PerkinElmer; Mirror LNACE/DELFIA Dual/Bias). […] IC50 analysis was determined by standard 4 parameter curve fitting according to an algorithm using GraphPad Prism 7.0 (GraphPad Software Inc., La Jolla, CA, USA). All data are expressed as mean ± standard error of the mean (SEM).

[2] = target: CBP BRD protein (Homo sapiens, UniProt Q92793); experiment: CBP bromodomain TR-FRET inhibitory activity assay; settings: read-out: CBP BRD IC50, Table 3
Procedure: A time resolved fluorescence resonance energy transfer (TR-FRET) experiment was used to verify the activity of CBP bromodomain.
as §1, with “32619)” for “32613)”, “85” for “15”, “sulfoxide” for “sulfoxide (DMSO)”

- IC50 [1]: > 5 µM
- IC50 [2]: < 500 nM
SMILES: Cn1cc(-c2cc3nc(C(C)(C)C)n(-c4cc(OCC5CCC(C)(O)CC5)c5c(c4)n(C)c(=O)n5C)c3cc2F)cn1 (centres unmarked)

Structures were worked out from names or drawings and are uncertain.
